Results are given in words; binding and its absence hold for the method and conditions named. Some results given as binding are weak or reduced against the parent protein; the word gives no strength.

Amino acid sequences for entries named in this document (tags omitted). A change or cut given only in a name is not applied to a line headed by its entry.
UniProt P04386: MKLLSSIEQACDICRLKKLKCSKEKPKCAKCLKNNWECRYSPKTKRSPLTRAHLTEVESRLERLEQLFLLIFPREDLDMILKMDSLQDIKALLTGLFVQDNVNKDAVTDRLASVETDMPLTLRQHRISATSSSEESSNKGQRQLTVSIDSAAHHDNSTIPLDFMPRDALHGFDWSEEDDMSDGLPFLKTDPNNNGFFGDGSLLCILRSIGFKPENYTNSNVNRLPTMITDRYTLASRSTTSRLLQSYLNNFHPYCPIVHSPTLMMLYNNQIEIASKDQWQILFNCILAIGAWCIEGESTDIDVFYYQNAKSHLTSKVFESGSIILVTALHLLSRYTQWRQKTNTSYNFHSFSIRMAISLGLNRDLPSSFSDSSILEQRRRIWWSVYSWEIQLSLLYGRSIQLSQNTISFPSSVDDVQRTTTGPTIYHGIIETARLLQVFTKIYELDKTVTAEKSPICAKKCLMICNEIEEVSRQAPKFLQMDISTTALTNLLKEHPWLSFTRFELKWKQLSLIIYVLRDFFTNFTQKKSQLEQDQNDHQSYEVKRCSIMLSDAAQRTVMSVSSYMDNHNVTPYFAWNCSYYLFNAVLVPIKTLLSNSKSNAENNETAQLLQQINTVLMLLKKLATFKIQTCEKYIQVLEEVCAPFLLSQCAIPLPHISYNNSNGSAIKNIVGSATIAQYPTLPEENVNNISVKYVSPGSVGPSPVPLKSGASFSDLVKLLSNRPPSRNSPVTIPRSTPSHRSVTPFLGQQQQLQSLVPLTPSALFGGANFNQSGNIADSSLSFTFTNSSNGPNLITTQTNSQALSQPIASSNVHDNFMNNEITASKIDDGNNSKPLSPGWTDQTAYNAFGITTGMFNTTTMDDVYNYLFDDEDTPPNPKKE
UniProt Q60680: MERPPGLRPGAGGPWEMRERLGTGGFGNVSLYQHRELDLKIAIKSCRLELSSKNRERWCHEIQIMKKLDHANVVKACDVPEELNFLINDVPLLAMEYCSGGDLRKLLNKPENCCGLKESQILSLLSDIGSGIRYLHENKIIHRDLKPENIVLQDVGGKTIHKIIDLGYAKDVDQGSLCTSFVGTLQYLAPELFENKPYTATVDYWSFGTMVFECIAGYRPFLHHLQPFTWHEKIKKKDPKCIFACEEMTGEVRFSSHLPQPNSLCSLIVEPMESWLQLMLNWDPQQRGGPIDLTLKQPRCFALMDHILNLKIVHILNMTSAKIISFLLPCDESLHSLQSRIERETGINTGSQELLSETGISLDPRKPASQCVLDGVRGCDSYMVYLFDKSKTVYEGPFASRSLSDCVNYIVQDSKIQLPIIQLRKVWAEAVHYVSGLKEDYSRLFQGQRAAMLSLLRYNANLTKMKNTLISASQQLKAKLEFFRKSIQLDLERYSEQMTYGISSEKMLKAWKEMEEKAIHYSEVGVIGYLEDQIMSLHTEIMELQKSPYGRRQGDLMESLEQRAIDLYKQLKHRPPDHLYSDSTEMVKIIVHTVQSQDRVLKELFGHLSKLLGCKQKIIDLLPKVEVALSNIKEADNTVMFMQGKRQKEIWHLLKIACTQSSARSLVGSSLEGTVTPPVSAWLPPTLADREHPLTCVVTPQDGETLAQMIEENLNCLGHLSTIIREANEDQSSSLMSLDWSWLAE

Three molecules from patent US6365722 can be followed below.

Test [1] deals with T1, IKKα bait: 937 bp SnaBI/XhoI fragment of the murine IKKα clone encoding the protein's leucine zipper, helix-loop-helix and carboxyl terminus, in the pGTB9c bait vector (murine) (UniProt P04386+Q60680). The experiment in a line: yeast two-hybrid, colony growth.
Test [2] concerns the target T1, IKKα bait: 937 bp SnaBI/XhoI fragment of the murine IKKα clone encoding the protein's leucine zipper, helix-loop-helix and carboxyl terminus, in the pGTB9c bait vector (murine). The test can be described thus: yeast two-hybrid.
Test [3] shares this target. The test can be described thus: yeast two-hybrid, relative interaction strength by colony growth rate.

B1: Y2H14, IKK binding protein (protein)
chain: CGLPLKEGALRPSYDRKSDRPVYEGPSMFGGERRTYPEERMPLPAPSLSHQPPPAPRVEKKPESKNVDDILKPPGRESRPERIVVIMRGLPGSGKTHVAKLIRDKEVEFGGPAPRVLSLDDYFITEVEKEEKDPDSGKKVKKKVREYEYEAEMEETYRTSMFKTFKKTLDDGFFPFIILDAINDRVRHFDQFWSAAKTKGFEVYLAEMSADNQTCGKRNIHGRKLKEINKMADHWETAPRHMMRLDIRSLLQDAAIEEVEMEDFDANIEEQKEEKKDAEEEESELGYIPKSKWEMDTSEAKLDKLDGLRTGTKRKRDWEAIASRMEDYLQLPDDYDTRASEPGKKRVRWADLEEKKDADRKRAIGFVVGQTDWEKITDESGHLAEKALNRTKYI
B1: the binding entry in test [1], in test [2] and in test [3] was “binds” in each case.

B2: Y2h clone 21, TRIP9/HuIκBβ2 (protein, human, UniProt Q15653-2 1-338, looked up)
chain: MAGVACLGKAADADEWCDSGLGSLGPDAAAPGGPGLGAELGPGLSWAPLVFGYVTEDGDTALHLAVIHQHEPFLDFLLGFSAGTEYMDLQNDLGQTALHLAAILGETSTVEKLYAAGAGLCVAERRGHTALHLACRVGAHACARALLQPRPRRPREAPDTYLAQGPDRTPDTNHTPVALYPDSDLEKEEEESEEDWKLQLEAENYEGHTPLHVAVIHKDVEMVRLLRDAGADLDKPEPTCGRSPLHLAVEAQAADVLELLLRAGANPAARMYGGRTPLGSAMLRPNPILARLLRAHGAPEPEGEDEKSGPCSSSSDSDSGDEGVSQEERQGSPAGGSG
As to B2, the binding result in test [1] and in test [3] was “binds” each time.

B3: Y2h clone 11, RanBP5 (protein, human, UniProt O00410 2-1097, looked up)
chain: AAAAAEQQQFYLLLGNLLSPDNVVRKQAEETYENIPGQSKITFLLQAIRNTTAAEEARQMAAVLLRRLLSSAFDEVYPALPSDVQTAIKSELLMIIQMETQSSMRKKVCDIAAELARNLIDEDGNNQWPEGLKFLFDSVSSQNVGLREAALHIFWNFPGIFGNQQQHYLDVIKRMLVQCMQDQEHPSIRTLSARATAAFILANEHNVALFKHFADLLPGFLQAVNDSCYQNDDSVLKSLVEIADTVPKYLRPHLEATLQLSLKLCGDTSLNNMQRQLALEVIVTLSETAAAMLRKHTNIVAQTIPQMLAMMVDLEEDEDWANADELEDDDFDSNAVAGESALDRMACGLGGKLVLPMIKEHIMQMLQNPDWKYRHAGLMALSAIGEGCHQQMEGILNEIVNFVLLFLQDPHPRVRYAACNAVGQMATDFAPGFQKKFHEKVIAALLQTMEDQGNQRVQAHAAAALINFTEDCPKSLLIPYLDNLVKHLHSIMVLKLQELIQKGTKLVLEQVVTSIASVADTAEEKFVPYYDLFMPSLKHIVENAVQKELRLLRGKTIECISLIGLAVGKEKFMQDASDVMQLLLKTQTDFNDMEDDDPQISYMISAWARMCKILGKEFQQYLPVVMGPLMKTASIKPEVALLDTQDMENMSDDDGWEFVNLGDQQSFGIKTAGLEEKSTACQMLVCYAKELKEGFVEYTEQVVKLMVPLLKFYFHDGVRVAAAESMPLLLECARVRGPEYLTQMWHFMCDALIKAIGTEPDSDVLSEIMHSFAKCIEVMGDGCLNNEHFEELGGILKAKLEEHFKNQELRQVKRQDEDYDEQVEESLQDEDDNDVYILTKVSDILHSIFSSYKEKVLPWFEQLLPLIVNLICPHRPWPDRQWGLCIFDDVIEHCSPASFKYAEYFLRPMLQYVCDNSPEVRQAAAYGLGVMAQYGGDNYRPFCTEALPLLVRVIQSADSKTKENVNATENCISAVGKIMKFKPDCVNVEEVLPHWLSWLPLHEDKEEAVQTFNYLCDLIESNHPIVLGPNNTNLPKIFSIIAEGEMHEAIKHEDPCAKRLANVVRQVQTSGGLWTECIAQLSPEQQAAIQELLNSA
For the molecule B3, the binding result in test [3] is recorded as “binds”.
